PubChem BioAssay AID1259424 – University of Nebraska Medical Center – 2018

Test: 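Rank knockdowns across the genome by resemblance to the KSR1 depletion profile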 (primary screen)
Cells: human HCT116 colon cancer cells
Reagents: siRNA pool against human genes, 50 nM
Read-out: 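Six signature mRNAs by branched-DNA multiplex assay, scaled to two housekeeping genes and non-targeting median, log2; matched to mean KSR1 knockdown profile by Pearson correlation and euclidean distance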
Direction: mean correlation with KSR1 profile: higher = expression change more like KSR1 knockdown; mean distance from KSR1 profile: higher = expression change less like KSR1 knockdown
The whole screen tested about 14,000 reagents; this is a part drawn at random. 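Higher correlation or smaller distance means closer resemblance to KSR1 loss; control wells, including KSR1 knockdowns, recur on many plates.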 Not all columns of the deposit are shown. No sequences are given here. Not given: the time to read-out.

PRUNE2 | mean correlation with KSR1 profile = -0.061; mean distance from KSR1 profile = 1.57
HRH4 | mean correlation with KSR1 profile = 0.745; mean distance from KSR1 profile = 1.61
ZNF324 | mean correlation with KSR1 profile = -0.395; mean distance from KSR1 profile = 2.94
PAM | mean correlation with KSR1 profile = -0.0513; mean distance from KSR1 profile = 1.34
SRP9 | mean correlation with KSR1 profile = -0.204; mean distance from KSR1 profile = 1.15
CHST5 | mean correlation with KSR1 profile = -0.242; mean distance from KSR1 profile = 3.82
DARS2 | mean correlation with KSR1 profile = -0.417; mean distance from KSR1 profile = 1.07
ATXN10 | mean correlation with KSR1 profile = -0.28; mean distance from KSR1 profile = 2.38
GPR37L1 | mean correlation with KSR1 profile = 0.446; mean distance from KSR1 profile = 1.84
TTC3 | mean correlation with KSR1 profile = -0.485; mean distance from KSR1 profile = 2.24
COA4 | mean correlation with KSR1 profile = -0.468; mean distance from KSR1 profile = 1.87
EEF1D | mean correlation with KSR1 profile = -0.213; mean distance from KSR1 profile = 3.01
LRRTM4 | mean correlation with KSR1 profile = 0.73; mean distance from KSR1 profile = 3.12
ERGIC1 | mean correlation with KSR1 profile = -0.233; mean distance from KSR1 profile = 2.07
MMUT | mean correlation with KSR1 profile = 0.495; mean distance from KSR1 profile = 2.63
VWA1 | mean correlation with KSR1 profile = -0.0875; mean distance from KSR1 profile = 4.22
AGBL4 | mean correlation with KSR1 profile = 0.51; mean distance from KSR1 profile = 1.91
PLEKHO2 | mean correlation with KSR1 profile = 0.539; mean distance from KSR1 profile = 1.34
MYO1F | mean correlation with KSR1 profile = 0.215; mean distance from KSR1 profile = 1.58
BAG2 | mean correlation with KSR1 profile = 0.305; mean distance from KSR1 profile = 3.69
TIMP3 | mean correlation with KSR1 profile = -0.625; mean distance from KSR1 profile = 2.3
ASCC2 | mean correlation with KSR1 profile = 0.354; mean distance from KSR1 profile = 2.69
NOL3 | mean correlation with KSR1 profile = 0.101; mean distance from KSR1 profile = 1.75
GREB1 | mean correlation with KSR1 profile = 0.47; mean distance from KSR1 profile = 0.984
ABCA5 | mean correlation with KSR1 profile = -0.4; mean distance from KSR1 profile = 1.51
TRAPPC3 | mean correlation with KSR1 profile = 0.0618; mean distance from KSR1 profile = 1.13
NGEF | mean correlation with KSR1 profile = 0.0675; mean distance from KSR1 profile = 3.03
ATF5 | mean correlation with KSR1 profile = 0.325; mean distance from KSR1 profile = 1.66

Limited to “mean distance from KSR1 profile” (4 entries from above):
SRP9	1.15
CHST5	3.82
DARS2	1.07
ATXN10	2.38
